# Experimental data: PubChem BioAssay AID504791 (Drosophila RNAi Screening Center, 2011)
# Aim: 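Genes whose knock-down strengthens or weakens small-RNA reporter silencing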 (primary screen)
# Cells: Drosophila S2-derived reporter cells
# Reagent: long dsRNA against Drosophila genes, about 150-250 ng dsRNA per well (siRNA assay); about 80-120 ng (miRNA assay)
# Time to read-out: about 5 days (siRNA assay); about 4 days (miRNA assay)
# Challenge: copper sulfate induction of reporters: 25 µM (siRNA assay); 200 mM stated (miRNA assay), 1-2 days before reading
# Detection: 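Per-well ratio of Renilla over firefly light, expressed relative to that plate's average ratio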
# Active means: 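a well was a first-pass pick when its plate-scaled ratio rose above 1.5 (siRNA assay) or 1.6 (miRNA assay), or dropped below 0.6; a gene counted only if two separate dsRNAs agreed on retest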
# The deposit covers about 23,000 reagents; shown is a random part of those with a known target gene and a result. Over the whole deposit, 199 (0.86%) are marked active. 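Plate-scaled ratios behind the calls are not deposited; printed light signals are raw; many rows marked increased or decreased are still called inactive.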 Entries without a mark were called inactive. Names joined by + are all predicted targets of the reagent. Not stated in the record: the direction of the score.
gene,dsRNA,stable siRNA reporter change,miRNA reporter change,"stable assay Renilla, run 1 (luminescence)","stable assay firefly, run 1 (luminescence)"
CG4646,DRSC06876,reporter ratio raised past the hit cutoff,reporter ratio raised past the hit cutoff,7439,2.68e5
Fip1 (Factor interacting with poly(A) polymerase 1),DRSC12147,reporter ratio raised past the hit cutoff,,21050,4.31e5
CG13603,DRSC14606,,,8053,4.80e5
Gmppb (GDP-mannose pyrophosphorylase B),DRSC12169,,,7268,4.40e5
CG42816 + CG42815,DRSC11230,,,7467,3.94e5
CG34345,DRSC02126,,,7495,4.10e5
Cpr67Fa1 (Cuticular protein 67Fa1),DRSC10932,,,5091,3.20e5
btv (beethoven),DRSC01615,,,6222,4.31e5
btv (beethoven),DRSC02449,,,6996,3.64e5
Rpn1 (Regulatory particle non-ATPase 1),DRSC11274,,,7696,1.98e5
sigmar (salivary glands marred),DRSC04449,,,12014,9.37e5
Tgt (tRNA-guanine transglycosylase),DRSC00672,,,9801,1.67e5
Tsen34 + Trl,DRSC10014,,,9046,3.11e5
Vtld + CG42529,DRSC10102,,,6876,3.58e5
CG18131,DRSC00517,,,2532,2.15e5
CG18131,DRSC22983,,,4895,3.48e5
CG4537,DRSC02756,,,6982,4.15e5
CG42246,DRSC17520,reporter ratio raised past the hit cutoff,,8289,3.93e5
Acbp4 (Acyl-CoA binding protein 4),DRSC11023,,,7018,4.60e5
CG31245,DRSC15498,,,6707,2.50e5
eIF4E3 (eukaryotic translation initiation factor 4E3),DRSC10952,,,8410,4.98e5
CG32333,DRSC08627,,,9950,3.26e5
CG32333,DRSC08629,,,5958,2.76e5
CG31778,DRSC00283,,,23998,1.92e5
CG1213,DRSC12191,,,7190,3.96e5
Tehao,DRSC03449,,,7375,4.43e5
CG17159 + CG17162,DRSC20899,,,6795,3.91e5
CG17159 + CG17162,DRSC20900,,,5639,4.31e5
Rbsn-5 (Rabenosyn-5),DRSC03094,,,1.28e5,7.06e5
PGRP-LE (Peptidoglycan recognition protein LE),DRSC20137,,,8721,5.25e5
Socs16D (Suppressor of Cytokine Signaling at 16D),DRSC20087,,,5452,4.29e5
Socs16D (Suppressor of Cytokine Signaling at 16D),DRSC23165,,,4512,3.63e5
CG12680,DRSC17871,,,5804,3.55e5
CG43737,DRSC19609,,,5556,4.03e5
Gsc (Goosecoid),DRSC00755,,,7458,5.01e5
OSCP1,DRSC06304,,,6475,5.09e5
fra (frazzled),DRSC07621,,,4970,2.53e5
RIOK2 (RIO kinase 2),DRSC14413,,,7487,3.50e5
cysu (Curly Su),DRSC15902,,,7227,3.41e5
Anp (Andropin),DRSC14112,,,7323,5.70e5
Nup75 (Nucleoporin 75kD),DRSC06947,reporter ratio raised past the hit cutoff,,17931,3.77e5
CG11052,DRSC14288,,,6743,4.86e5
CG33969,DRSC11777,,,6858,3.23e5
to (takeout),DRSC17086,,,6462,3.81e5
Argp (Arginine phosphatase),DRSC16510,,,7879,3.93e5
CG31380,DRSC15688,,,6412,2.81e5
fiz (fezzik),DRSC20188,,,8810,5.56e5
CG4645,DRSC19907,,,7799,3.70e5
CG18731,DRSC15377,,,9730,3.94e5
CG34444,DRSC06435,,,6063,5.14e5
htk (hat-trick),DRSC20029,,,6159,2.96e5
htk (hat-trick),DRSC20031,,,6522,3.33e5
Arc42 (Activator-recruited cofactor subunit 42),DRSC14340,,,7514,3.73e5
Arc42 (Activator-recruited cofactor subunit 42),DRSC15627,,,7051,3.76e5
CG14676,DRSC12262,,,6231,3.49e5
CG6432,DRSC16039,,,8622,2.97e5
Fancm (Fanconi anemia group M helicase),DRSC16348,,,9323,4.97e5

Reformatted: entries from further up.
| gene | dsRNA | stable siRNA reporter change | miRNA reporter change | stable assay Renilla, run 1 (luminescence) | stable assay firefly, run 1 (luminescence) |
| --- | --- | --- | --- | --- | --- |
| CG42816 + CG42815 | DRSC11230 | – | – | 7467 | 3.94e5 |
| CG34345 | DRSC02126 | – | – | 7495 | 4.10e5 |
| Cpr67Fa1 (Cuticular protein 67Fa1) | DRSC10932 | – | – | 5091 | 3.20e5 |
| btv (beethoven) | DRSC01615 | – | – | 6222 | 4.31e5 |
| btv (beethoven) | DRSC02449 | – | – | 6996 | 3.64e5 |
| Rpn1 (Regulatory particle non-ATPase 1) | DRSC11274 | – | – | 7696 | 1.98e5 |
| sigmar (salivary glands marred) | DRSC04449 | – | – | 12014 | 9.37e5 |
